Measured data: PubChem BioAssay AID504791 (Drosophila RNAi Screening Center, 2011)
The deposit covers about 23,000 reagents; this is an unselected part of those with a known target gene and a result. Of all reagents, 199 (0.86%) got an active call. 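Plate-scaled ratios behind the calls are not deposited; printed light signals are raw; many rows marked increased or decreased are still called inactive.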 A plus sign joins genes that one reagent is predicted to hit. No sequences are given here. Not given: the direction of the score.

Purpose: 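Genes of the fly required for silencing by miRNA, siRNA or endo-siRNA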 (primary screen)
Cells: Drosophila S2-derived reporter cells
Knock-down reagent: long dsRNA against Drosophila genes, about 150-250 ng dsRNA per well (siRNA assay); about 80-120 ng (miRNA assay)
Duration: about 5 days (siRNA assay); about 4 days (miRNA assay)
Treatment: copper sulfate induction of reporters: 25 µM (siRNA assay); 200 mM stated (miRNA assay), 1-2 days before reading
Read-out: 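Dual luciferase assay: Renilla to firefly signal ratio in each well, scaled to the mean ratio of its plate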
Rule for the call: 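a well was a first-pass pick when its plate-scaled ratio rose above 1.5 (siRNA assay) or 1.6 (miRNA assay), or dropped below 0.6; a gene counted only if two separate dsRNAs agreed on retest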

gene | DRSC id | stable siRNA reporter change | miRNA reporter change | stable assay Renilla, run 1 (luminescence) | stable assay firefly, run 1 (luminescence) | Call
CG33301 (GeneID 2768917) | DRSC02778 | – | – | 7142 | 3.98e5 | inactive
CG12679 (GeneID 33031) | DRSC20493 | – | – | 6131 | 3.17e5 | inactive
hzg (GeneID 39748) | DRSC10549 | – | – | 5375 | 2.14e5 | inactive
Cpr49Ac (GeneID 36348) | DRSC07199 | – | – | 7582 | 3.93e5 | inactive
ppk3 (GeneID 246504) | DRSC04275 | – | – | 6687 | 4.22e5 | inactive
CG11585 (GeneID 32365) | DRSC19410 | – | – | 5006 | 4.28e5 | inactive
ssp5 (GeneID 41465) | DRSC14955 | – | – | 7915 | 4.20e5 | inactive
GC (GeneID 38194) | DRSC08396 | – | – | 8210 | 3.58e5 | inactive
fend (GeneID 31843) | DRSC17601 | – | – | 4744 | 4.73e5 | inactive
fend (GeneID 31843) | DRSC17867 | – | – | 4822 | 4.31e5 | inactive
CG1537 (GeneID 32037) | DRSC19662 | – | – | 4767 | 3.22e5 | inactive
PGRP-SC1b (GeneID 35861) | DRSC07215 | – | – | 8275 | 3.70e5 | inactive
Lamtor3 (GeneID 35055) | DRSC02815 | – | – | 7414 | 5.23e5 | inactive
CG18371 (GeneID 36556) | DRSC06733 | – | – | 6575 | 3.15e5 | inactive
Tim17a1 (GeneID 41500) | DRSC14184 | – | – | 6268 | 3.76e5 | inactive
Spt5 (GeneID 53442) | DRSC07556 | reporter ratio lowered past the hit cutoff | reporter ratio lowered past the hit cutoff | 5563 | 5.15e5 | active
Scgbeta (GeneID 41525) | DRSC15854 | – | – | 6800 | 4.46e5 | inactive
Zcchc7 (GeneID 39883) | DRSC11099 | – | – | 7415 | 2.66e5 | inactive
PheRS-m (GeneID 36547) | DRSC05915 | – | – | 8115 | 4.65e5 | inactive
MED6 (GeneID 44728) | DRSC16500 | – | – | 7166 | 3.61e5 | inactive
Usp5 (GeneID 38375) | DRSC08244 | – | – | 7618 | 4.28e5 | inactive
CG14811 (GeneID 31132) | DRSC17962 | – | – | 5738 | 4.27e5 | inactive
CG9662 (GeneID 33554) | DRSC00723 | – | – | 9320 | 5.40e5 | inactive
shn (GeneID 36171) | DRSC05266 | – | – | 6010 | 3.55e5 | inactive
shn (GeneID 36171) | DRSC07681 | – | – | 7897 | 4.55e5 | inactive
PolZ1 (GeneID 47186) | DRSC06800 | – | – | 8894 | 5.00e5 | inactive
CG17375 (GeneID 33956) | DRSC02614 | – | – | 7830 | 4.68e5 | inactive
Nox (GeneID 5740310) | DRSC06596 | – | – | 6688 | 3.58e5 | inactive
Nox (GeneID 5740310) | DRSC06857 | – | – | 5534 | 2.69e5 | inactive
CG10081 (GeneID 37226) | DRSC05962 | – | – | 6688 | 3.51e5 | inactive
Mnat9 (GeneID 43726) | DRSC14325 | – | – | 5527 | 3.82e5 | inactive
Alp2 (GeneID 37539) | DRSC04354 | – | – | 6630 | 5.21e5 | inactive
l(3)mbt (GeneID 43288) | DRSC16983 | – | – | 6136 | 4.23e5 | inactive
Use1 (GeneID 39051) | DRSC10180 | – | – | 6795 | 4.51e5 | inactive
robo2 (GeneID 44522) | DRSC00377 | – | – | 6551 | 3.23e5 | inactive
robo2 (GeneID 44522) | DRSC00378 | – | – | 7566 | 4.04e5 | inactive
robo2 (GeneID 44522) | DRSC00686 | – | – | 8006 | 4.32e5 | inactive
robo2 (GeneID 44522) | DRSC00691 | – | – | 52646 | 1.07e5 | inactive
btz (GeneID 43331) | DRSC14566 | – | – | 8019 | 3.37e5 | inactive
CG6685 (GeneID 39172) | DRSC10695 | – | – | 7107 | 4.50e5 | inactive
Uba2 (GeneID 44496) | DRSC11311 | reporter ratio lowered past the hit cutoff | – | 5358 | 6.96e5 | inactive
or (GeneID 43943) | DRSC04329 | – | – | 6212 | 3.81e5 | inactive
MED31 (GeneID 40577) | DRSC12142 | – | – | 6591 | 2.04e5 | inactive
PK2-R1 (GeneID 41639) | DRSC16447 | – | – | 7366 | 3.62e5 | inactive
Cyp4ac2 (GeneID 33755) | DRSC03303 | – | – | 7024 | 3.63e5 | inactive
CG31926 (GeneID 326174) | DRSC00295 | – | – | 7993 | 3.89e5 | inactive
nerfin-1 (GeneID 44786) | DRSC08729 | – | – | 6071 | 4.37e5 | inactive
beat-IIIa (GeneID 35035) | DRSC01575 | – | – | 5219 | 3.64e5 | inactive
beat-IIIa (GeneID 35035) | DRSC01577 | – | – | 4579 | 3.48e5 | inactive
beat-IIIa (GeneID 35035) | DRSC02178 | – | – | 8091 | 5.19e5 | inactive
Mtmr6 (GeneID 37707) | DRSC04046 | – | – | 6944 | 3.63e5 | inactive
sgl (GeneID 38760) | DRSC21431 | – | – | 7851 | 4.03e5 | inactive
CG8543 (GeneID 38837) | DRSC10990 | – | – | 6486 | 4.40e5 | inactive
CG8543 (GeneID 38837) | DRSC22809 | – | – | 3216 | 3.13e5 | inactive
Asap (GeneID 35783) | DRSC06493 | – | – | 7366 | 4.22e5 | inactive
Asap (GeneID 35783) | DRSC06830 | – | – | 8887 | 4.09e5 | inactive
nocte (GeneID 31976) | DRSC18123 | – | – | 7135 | 3.55e5 | inactive
CG9175 (GeneID 33862) | DRSC03153 | – | – | 60265 | 3.80e5 | inactive
CG15283 (GeneID 50454) | DRSC01980 | – | – | 7271 | 3.55e5 | inactive
CG13561 (GeneID 37765) | DRSC04199 | – | – | 6155 | 3.83e5 | inactive
Oatp33Eb (GeneID 34662) | DRSC02955 | – | – | 7635 | 4.72e5 | inactive
metro (GeneID 36176) | DRSC06341 | – | – | 9038 | 5.69e5 | inactive
metro (GeneID 36176) | DRSC06725 | – | – | 5223 | 3.91e5 | inactive
Rh50 (GeneID 38589) | DRSC08692 | – | – | 7805 | 3.88e5 | inactive
Ythdc1 (GeneID 38420) | DRSC08141 | – | – | 8126 | 5.44e5 | inactive
CG18605 (GeneID 37189) | DRSC06772 | – | – | 6699 | 4.46e5 | inactive
Pi4KIIIalpha (GeneID 31247) | DRSC18655 | – | – | 4823 | 2.94e5 | inactive
Tsp42Ej (GeneID 35620) | DRSC06113 | – | – | 1.74e5 | 1.48e6 | inactive
CG12446 (GeneID 33147) | DRSC20618 | – | – | 4528 | 3.08e5 | inactive
CG15577 (GeneID 50378) | DRSC18065 | – | – | 7711 | 4.83e5 | inactive
SelG (GeneID 32149) | DRSC19808 | – | – | 8561 | 5.72e5 | inactive
so (GeneID 35662) | DRSC07693 | – | – | 26742 | 2.13e6 | inactive
so (GeneID 35662) | DRSC23096 | – | – | 3527 | 2.44e5 | inactive
CG33639 (GeneID 32803) | DRSC19966 | – | – | 5843 | 4.54e5 | inactive
CG33639 (GeneID 32803) | DRSC22820 | – | – | 4555 | 3.96e5 | inactive
CG15539 (GeneID 43627) | DRSC15075 | – | – | 6332 | 4.10e5 | inactive
CG31344 (GeneID 41835) | DRSC16069 | – | – | 7027 | 3.86e5 | inactive
Slip1 (GeneID 43809) | DRSC17146 | – | – | 7231 | 3.69e5 | inactive
CG7094 (GeneID 35065) | DRSC03005 | – | – | 6583 | 3.59e5 | inactive
CG33791 + CG18170 | DRSC08523 | – | – | 5550 | 3.66e5 | inactive
CG33791 + CG18170 | DRSC08601 | – | – | 5972 | 3.39e5 | inactive
CG4645 (GeneID 32244) | DRSC19907 | – | – | 7799 | 3.70e5 | inactive
CG16998 (GeneID 38847) | DRSC10235 | – | – | 7090 | 3.83e5 | inactive

A few values from above.
Under “Call”, Nox (GeneID 5740310) [DRSC06857] has inactive
Under “Call”, CG33301 (GeneID 2768917) [DRSC02778] reads inactive
CG7094 (GeneID 35065) [DRSC03005], Call → inactive
Under “Call”, Cyp4ac2 (GeneID 33755) [DRSC03303] is entered as inactive
Under “stable assay Renilla, run 1 (luminescence)”, CG33791 + CG18170 [DRSC08601] has 5972
GC (GeneID 38194) [DRSC08396], stable assay Renilla, run 1 (luminescence) = 8210
